# Structures can show the parent of a compound that is named as a salt. The list shows a part of the results. Most entries show no effect beyond the scatter of the controls.
# Test system: hPSC-derived cortical neurons (WA09)
# Experiment: total neurite length per nucleus (MAP2) z-score; higher = more neurite growth
# Settings: 5 µM; treatment: days 7-14 after plating, readout day 21
row,SMILES,total neurite length per nucleus (z-score)
1,CC(=O)O[C@]1(C(C)=O)CC[C@H]2[C@@H]3C=C(Cl)C4=CC(=O)[C@@H]5C[C@@H]5[C@]4(C)[C@H]3CC[C@@]21C [Cyproterone Acetate],-1.61
2,C[C@H](CCC(=O)NCCS(=O)(=O)O)[C@H]1CC[C@H]2[C@@H]3[C@@H](O)C[C@@H]4C[C@H](O)CC[C@]4(C)[C@H]3CC[C@]12C [Sodium Tauroursodeoxycholate (TUDC)],1.15
3,CNC(=O)c1cc(Oc2ccc(NC(=O)Nc3ccc(Cl)c(C(F)(F)F)c3)c(F)c2)ccn1 [Regorafenib (BAY 73-4506)],-0.0602
4,NC(=O)N1c2ccccc2CC(=O)c2ccccc21 [Oxcarbazepine],-0.298
5,CN1CCN(c2c(F)cc3c(=O)c(C(=O)O)cn4c3c2OCN4C)CC1 [Marbofloxacin],-1.05
6,O=C(O)CCc1nc(-c2ccccc2)c(-c2ccccc2)o1 [Oxaprozin],0.126
7,CNC(=O)c1cccc(-c2ccc3c(N4CCOC[C@@H]4C)nc(N4CCOC[C@@H]4C)nc3n2)c1,-1.36
8,Cc1cnc(Nc2ccc(N3CCN(C)CC3)cc2)nc1Nc1cccc(S(=O)(=O)NC(C)(C)C)c1,0.182
9,COc1cc2ncnc(Nc3cccc(Cl)c3)c2cc1OC [AG-1478 (Tyrphostin AG-1478)],0.0458
10,Cn1cc(CNCC2CCN(c3ncc(C(=O)NO)cn3)CC2)c2ccccc21,-2.59
11,Nc1nc(CC(=O)Nc2ccc(CCNC[C@H](O)c3ccccc3)cc2)cs1 [Mirabegron],0.302
12,C[C@H](CCC(=O)O)[C@H]1CC[C@H]2[C@@H]3[C@@H](O)C[C@@H]4C[C@H](O)CC[C@]4(C)[C@H]3CC[C@]12C [Ursodiol],-0.779
13,O=C(NC(NC(=S)Nc1ccc(F)c([N+](=O)[O-])c1)C(Cl)(Cl)Cl)C(c1ccccc1)c1ccccc1 (stereo not given),-0.554
14,CC(=O)N[C@@H](CCC(N)=O)C(=O)O [Aceglutamide],0.538
15,COc1cc2c(cc1OC)C(=O)C(CC1CCN(Cc3ccccc3)CC1)C2 (stereo not given) [Donepezil HCl],-0.143
16,CCCC(=O)OCOC(=O)C1=C(C)NC(C)=C(C(=O)OC)C1c1cccc(Cl)c1Cl (stereo not given) [Clevidipine Butyrate],1.83
17,Nc1ccc(C(=O)NCC(=O)O)cc1 [4-Aminohippuric Acid],1.07
18,C[C@H](NC(=O)C(=O)Nc1ccccc1C(C)(C)C)C(=O)N[C@@H](CC(=O)O)C(=O)COc1c(F)c(F)cc(F)c1F [Emricasan],0.798
19,O=C(Nc1ccccc1)N1CCN(c2nc(-c3ccccc3)ns2)CC1,0.811
20,NC(=O)[C@@H]1CCCN1C(=O)[C@H](Cc1c[nH]cn1)NC(=O)[C@@H]1CCC(=O)N1 [Protirelin],-0.967

# Compounds from the list above containing a tert-butyl group (2):
row,SMILES,total neurite length per nucleus (z-score)
8,Cc1cnc(Nc2ccc(N3CCN(C)CC3)cc2)nc1Nc1cccc(S(=O)(=O)NC(C)(C)C)c1,0.182
18,C[C@H](NC(=O)C(=O)Nc1ccccc1C(C)(C)C)C(=O)N[C@@H](CC(=O)O)C(=O)COc1c(F)c(F)cc(F)c1F [Emricasan],0.798

# More entries follow:

row,SMILES,total neurite length per nucleus (z-score)
1,Cc1ccc2nc(NCCN)c3ncc(C)n3c2c1,-0.477
2,CN1CCN(c2ccc(OC(F)(F)F)c(Nc3ncc4c(n3)-c3c(c(C(N)=O)nn3CCO)CC4)c2)CC1,0.0883
3,COc1ccc(-c2ccc3cc(C(=O)O)ccc3c2)cc1C12CC3CC(CC(C3)C1)C2 [Adapalene],0.0417
4,CC1(C)S[C@@H]2[C@H](NC(=O)C(C(=O)O)c3ccccc3)C(=O)N2[C@H]1C(=O)O (stereo not given in full) [Carbenicillin disodium],-0.448
5,Cc1c[nH]c(/C=C2\C(=O)Nc3ccccc32)c1CCC(=O)O,0.205
6,NS(=O)(=O)c1cc2c(cc1Cl)NCNS2(=O)=O [Hydrochlorothiazide],-0.372
7,Cc1nc(C)c(Cl)c(O)c1Cl [Clopidol],0.897
8,C=C1C(=O)O[C@@H]2/C=C(\C)CC/C=C(\C)CC[C@@H]12 [Costunolide],-0.7
9,C[N+]1(C)[C@@H]2C[C@@H](OC(=O)C(O)(c3cccs3)c3cccs3)C[C@H]1[C@@H]1O[C@@H]12 [Tiotropium Bromide hydrate],0.414
10,COc1cc(NC(=O)c2ccccn2)ccc1Cl,-0.125
11,Nc1[nH]cnc2ncnc1-2 [Adenine HCl],0.661
12,COc1cc(C(=O)O)ccc1NC(=O)[C@@H]1N[C@@H](CC(C)(C)C)[C@](C#N)(c2ccc(Cl)cc2F)[C@H]1c1cccc(Cl)c1F [Idasanutlin (RG-7388)],0.807
13,CN1CCc2c(c3ccccc3n2Cc2ccc(C(=O)NO)cc2)C1 [Tubastatin A],0.509
14,O=C(O)CCC(=O)c1ccc(-c2ccccc2)cc1 [Fenbufen],-0.615
15,C=CCc1ccc(O)c(-c2cc(CC=C)ccc2O)c1 [Magnolol],0.0318
16,CC(C)C[C@H](NC(=O)CNC(=O)c1cc(Cl)ccc1Cl)B1OC(=O)C(CC(=O)O)(CC(=O)O)O1,-5.81
17,CC(C)(C)[N+]([O-])=Cc1ccc(S(=O)(=O)O)cc1S(=O)(=O)O,1.18
18,CNC(=O)c1ccccc1Nc1cc(Nc2ccc(N3CCOCC3)cc2OC)ncc1C(F)(F)F,-2.87
19,Nc1ccc(S(N)(=O)=O)cc1 [Sulfanilamide],0.228
20,CC(=O)OCOC(=O)CN(CC(=O)OCOC(C)=O)c1ccccc1OCCOc1ccccc1N(CC(=O)OCOC(C)=O)CC(=O)OCOC(C)=O,1.45

# — the supplement of paper PMC11348887
